The structures appear in SMILES notation. Where a name gives a salt, the structure may show the parent alone. Some of the results follow. Single values are uncertain here, since repeats match poorly.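 Test system: Schistosoma mansoni schistosomula, roughly 40 per well, imaged in bright field over time and compared with wells given 0.1% DMSO. Distance read-out: the paper calls a drug a hit when its Mahalanobis distance is at least 2.47, three standard deviations above the DMSO control mean. Degeneracy is the share of worms classified opaque.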

The experiment concerns Schistosoma mansoni schistosomula. In words: degeneracy (percent of somules classified as degenerate/opaque); higher = more parasite degeneration/death; extreme values may be limits of the assay. The following applies: 10 µM; 72 h.
For `OC[C@@H](O)[C@@H](O)CO` [Erythritol], the degeneracy worked out at 0%.

With `O=C(O)Cc1ccccc1Nc1c(Cl)cccc1Cl` [Diclofenac], the degeneracy was found to be 5.56%. `N=c1ccn2c(n1)O[C@H]1[C@H](O)[C@@H](CO)O[C@H]12` [Ancitabine Hydrochloride]: the degeneracy was found to be 12.5%.

Consider `CS(=O)(=O)c1ccc([C@@H](O)[C@@H](CO)NC(=O)C(Cl)Cl)cc1` [Thiamphenicol], for which the degeneracy worked out at 2.7%.

`C[C@]12C=CC(=O)C=C1CC[C@@H]1[C@@H]2[C@@H](O)C[C@@]2(C)[C@H]1CC[C@]2(O)C(=O)CO` [Prednisolone]: the degeneracy is 2.94%. Take `Nc1ccc(O)c(C(=O)O)c1` [Mesalamine]: the degeneracy came to 9.09%.

On to `CCC(=O)O[C@H](CC(=O)O)C[N+](C)(C)C` [Levocarnitine Propionate Hydrochloride], for which the degeneracy came to 11.1%.

In the case of `CN(C)CCCN1c2ccccc2CCc2ccc(Cl)cc21` [Clomipramine], the degeneracy amounted to 100%.

`Cc1cc(C(C)(C)CC(C)(C)C)ccc1OCCOCC[N+](C)(C)Cc1ccccc1` [Methylbenzethonium Chloride] registered a degeneracy of 100%. As to `Cc1cc(NC(=O)C2=C(O)c3ccccc3S(=O)(=O)N2C)no1` [Isoxicam], the degeneracy is 2.94%. In turn, `COC(=O)C1=C(C)NC(C)=C(C(=O)OC)C1c1ccccc1[N+](=O)[O-]` [Nifedipine] displayed a degeneracy of 4.17%.

As for `COc1cc2c(cc1O)CC[C@@H]1[C@@H]2CC[C@]2(C)[C@@H](O)CC[C@@H]12` [2-methoxyestradiol], the degeneracy amounted to 13.3%.

The compound `CO[C@@]1(NC(=O)C(C(=O)O)c2ccc(O)cc2)C(=O)N2C(C(=O)O)=C(CSc3nnnn3C)CO[C@@H]21` (stereo partly drawn) [Moxalactam Disodium] gave a degeneracy of 4%.

In turn, `O=C1CC[C@@H](C(=O)O)N1` [Pidolic Acid] had a degeneracy of 2.7%.

For the compound `C#C[C@]1(O)CC[C@H]2[C@@H]3CCC4=CC(=O)CC[C@@H]4[C@H]3CC[C@@]21C` [Norethindrone], the degeneracy stood at 11.4%. For the compound `C#C[C@]1(OC(C)=O)CC[C@H]2[C@@H]3CCC4=C[C@@H](OC(C)=O)CC[C@@H]4[C@H]3CC[C@@]21C` [Ethynodiol Diacetate], the degeneracy worked out at 4.26%. The figure for `CCCN[C@H]1CCc2nc(N)sc2C1` [Pramipexole] is 9.52%. Under `Cc1nc2ccccc2n1Cc1ccc(Cl)cc1` [Chlormidazole] stands 62.5%; under `Cc1cc(=O)oc2cc(O)ccc12` [Hymecromone], 17.4%.

`CCCNC(C)C(=O)Nc1ccccc1C` (stereo not drawn) [Prilocaine]: the degeneracy is 11.1%. Under `COc1ccc(CN(CCN(C)C)c2ccccn2)cc1` [Pyrilamine] stands 3.7%; under `CC(COc1ccccc1)N(CCCl)Cc1ccccc1` (stereo not drawn) [Phenoxybenzamine], 100%. As for `CC(=O)c1ccc(S(=O)(=O)NC(=O)NC2CCCCC2)cc1` [Acetohexamide], the degeneracy was 0%. `NCCCC[C@H](N[C@@H](CCc1ccccc1)C(=O)O)C(=O)N1CCC[C@H]1C(=O)O` [Lisinopril] returned a degeneracy of 4.88%. With `CC(C)(C)NC[C@H](O)COc1nsnc1N1CCOCC1` [Timolol Maleate], the degeneracy worked out at 0%. Compound `CC(C)(C)NC[C@H](O)COc1nsnc1N1CCOCC1` [Timolol] displayed a degeneracy of 0%. Consider `CO/N=C(\C(=O)N[C@@H]1C(=O)N2C(C(=O)O)=C(CSc3nc(=O)c(O)nn3C)CS[C@H]12)c1csc(N)n1` [Ceftriaxone Sodium Trihydrate], for which the degeneracy came out at 0%. `CCOC(=O)OC(C)OC(=O)[C@@H]1N2C(=O)[C@@H](NC(=O)[C@H](N)c3ccccc3)[C@H]2SC1(C)C` (stereo partly drawn) [Bacampicillin Hydrochloride] had a degeneracy of 9.3%. Under `CC(=O)N[C@@H](CC(C)C)C(=O)O` [Acetyl-l-leucine] stands 5.13%; under `Nc1nc(=O)c2nc(CNc3ccc(C(=O)N[C@@H](CCC(=O)O)C(=O)O)cc3)cnc2[nH]1` [Folic Acid], 10.3%. Under `CC(C)C[C@H](NC(=O)[C@@H](Cc1c[nH]c2ccccc12)NC(=O)[C@H](Cc1ccc(O)cc1)NC(=O)[C@H](CO)NC(=O)[C@H](Cc1c[nH]c2ccccc12)NC(=O)[C@H](Cc1c[nH]cn1)NC(=O)[C@@H]1CCC(=O)N1)C(=O)N[C@@H](CCCNC(=N)N)C(=O)N1CCC[C@H]1C(=O)NCC(N)=O` [Triptorelin] stands 3.23%.

With `C=C1CC[C@H](O)C/C1=C/C=C1\CCC[C@]2(C)[C@@H]([C@H](C)CCCC(C)(C)O)CC[C@@H]12` [Calcifediol], the degeneracy was 0%. The compound `CC[C@H]1OC(=O)[C@H](C)[C@@H](O[C@H]2C[C@@](C)(OC)[C@@H](O)[C@H](C)O2)[C@H](C)[C@@H](O[C@@H]2O[C@H](C)C[C@H](N(C)C)[C@H]2O)[C@](C)(O)C[C@@H](C)/C(=N\OCOCCOC)[C@H](C)[C@@H](O)[C@]1(C)O` [Roxithromycin] had a degeneracy of 6.52%. The figure for `O=C1CN2Cc3c(ccc(Cl)c3Cl)N=C2N1` [Anagrelide Hydrochloride] is 2.33%; for `Nc1nc(Cl)nc2c1ncn2[C@@H]1O[C@H](CO)[C@@H](O)[C@@H]1F` [Clofarabine] it is 6.25%. `CC(=O)OCC(COC(C)=O)OC(C)=O` [Triacetin] came in with a degeneracy of 2.63%. `CO[C@H]1/C=C/O[C@@]2(C)Oc3c(C)c(O)c4c(c3C2=O)C2=NC3(CCN(CC(C)C)CC3)NC2=C(NC(=O)/C(C)=C\C=C\[C@H](C)[C@H](O)[C@@H](C)[C@@H](O)[C@@H](C)[C@H](OC(C)=O)[C@@H]1C)C4=O` [Rifabutin]: the degeneracy worked out at 18.8%. Consider `NC(=O)N1c2ccccc2C=Cc2ccccc21` [Carbamazepine], for which the degeneracy is 0%.

Turning to `CN(C)CCN(Cc1cccs1)c1ccccn1` [Methapyrilene], the degeneracy stood at 2.86%. Compound `NC(CO)(CO)CO` [Tromethamine] showed a degeneracy of 100%. As for `CC(=O)N[C@@H](CC(=O)N[C@@H](CCC(=O)O)C(=O)O)C(=O)O` [Spaglumic Acid], the degeneracy is 3.03%. `Cc1ccc(S(=O)(=O)NC(=O)NN2CC3CCCC3C2)cc1` (stereo not drawn) [Gliclazide] came in with a degeneracy of 18.2%. Under `CCn1cc(C(=O)O)c(=O)c2cnc(N3CCNCC3)nc21` [Pipemidic Acid] stands 6.25%; under `NCCS(=O)(=O)O` [Taurine], 5.56%; under `O=C(CCCN1CC=C(n2c(=O)[nH]c3ccccc32)CC1)c1ccc(F)cc1` [Droperidol], 0%. In the case of `CCN(CC)CCNC(=O)c1cc(S(C)(=O)=O)ccc1OC` [Tiapride], the degeneracy came to 4.76%. Under `C[C@H]1[C@@H](O)O[C@@H]2O[C@@]3(C)CC[C@H]4[C@H](C)CC[C@@H]1[C@@]24OO3` [Artenimol] stands 6.67%.

Turning to `CCCCCC(C)N` (stereo not drawn) [Tuaminoheptane Sulfate], the degeneracy worked out at 12.5%. The figure for `CCN(Cc1ccncc1)C(=O)C(CO)c1ccccc1` (stereo not drawn) [Tropicamide] is 12.5%; for `OC(CCN1CCCCC1)(c1ccccc1)C1CC2C=CC1C2` (stereo not drawn) [Biperiden] it is 5.45%; for `Cc1ncc([N+](=O)[O-])n1CCO` [Metronidazole] it is 7.14%.

On to `CN1C2CCCC1CC(NC(=O)c1nn(C)c3ccccc13)C2` (stereo not drawn) [Granisetron], for which the degeneracy turned out to be 5.26%.

As for `CC(C)N1CCN(c2ccc(OCC3COC(Cn4cncn4)(c4ccc(Cl)cc4Cl)O3)cc2)CC1` (stereo not drawn) [Terconazole], the degeneracy turned out to be 7.69%. The figure for `C=CC[C@@H]1/C=C(\C)C[C@H](C)C[C@H](OC)[C@H]2O[C@@](O)(C(=O)C(=O)N3CCCC[C@H]3C(=O)O[C@H](/C(C)=C/[C@@H]3CC[C@@H](O)[C@H](OC)C3)[C@H](C)[C@@H](O)CC1=O)[C@H](C)C[C@@H]2OC` [Tacrolimus] is 23.5%. On to `COc1ccc2[nH]cc(CCNC(C)=O)c2c1` [Melatonin], for which the degeneracy stood at 15.4%. As to `Cc1ccc(C(=O)c2cc(O)c(O)c([N+](=O)[O-])c2)cc1` [Tolcapone], the degeneracy was 3.57%. Compound `NC[C@H]1O[C@H](O[C@H]2[C@H](O[C@@H]3O[C@H](CO)[C@@H](O)[C@H]3O)[C@@H](O)[C@H](N)C[C@@H]2N)[C@H](N)[C@@H](O)[C@@H]1O` [Ribostamycin Sulfate] gave a degeneracy of 2.13%. The figure for `CCCC(=O)Nc1ncnc2c1ncn2[C@@H]1O[C@@H]2COP(=O)(O)O[C@H]2[C@H]1OC(=O)CCC` [Bucladesine] is 10.3%; for `CC1=CC(=O)NS(=O)(=O)O1` [Acesulfame Potassium] it is 15%; for `CN1CCCC(n2nc(Cc3ccc(Cl)cc3)c3ccccc3c2=O)CC1` (stereo not drawn) [azelastine] it is 4.76%.

Take `O=C(CNC(=O)c1ccc(Cl)cc1)NO` [Benurestat]: the degeneracy is 4.76%. Under `CN1CCCCC1CCN1c2ccccc2Sc2ccc([S+](C)[O-])cc21` (stereo not drawn) [Mesoridazine Besylate] stands 2.22%; under `O=C(O[C@H]1CN2CCC1CC2)N1CCc2ccccc2[C@@H]1c1ccccc1` [Solifenacin Succinate], 8.33%. Under `CO[C@@H]1[C@@H](OC(N)=O)[C@@H](O)[C@H](Oc2ccc3c(O)c(NC(=O)c4ccc(O)c(CC=C(C)C)c4)c(=O)oc3c2C)OC1(C)C` [Novobiocin Sodium] stands 2.63%; under `CC(=O)Oc1cccc(O)c1` [Resorcinol Monoacetate], 0%; under `CCN1CCN(C(=O)N[C@@H](C(=O)N[C@@H]2C(=O)N3[C@@H]2SC(C)(C)[C@@H]3C(=O)O)c2ccccc2)C(=O)C1=O` [Piperacillin], 8.11%.

Compound `CCN1CCN(C(=O)N[C@@H](C(=O)N[C@@H]2C(=O)N3[C@@H]2SC(C)(C)[C@@H]3C(=O)O)c2ccccc2)C(=O)C1=O` [Piperacillin Sodium] gave a degeneracy of 2.63%.

Take `OCCN1CCN(CCCN2c3ccccc3Sc3ccc(Cl)cc32)CC1` [perphenazine]: the degeneracy was 100%.

`CN(C)CCc1c[nH]c2ccc(Cn3cncn3)cc12` [Rizatriptan Benzoate] had a degeneracy of 6.82%. `Nc1ccc(S(=O)(=O)c2ccc(N)cc2)cc1` [Dapsone] displayed a degeneracy of 33.3%. Under `N=C(N)NCC1COC2(CCCCC2)O1` (stereo not drawn) [Guanadrel Sulfate] stands 4.76%; under `CC1(C)OC(=O)NC1=O` [Dimethadione], 5.88%; under `Nc1ccc(C(=O)NCC(=O)O)cc1` [Aminohippuric Acid], 0%.

The record behind these values is the supplement of paper PMC7752906.
